Results taken from paper PMC10334757.
No constants are given. Whether binding was seen depends on the method and setting. Binding seen in cells or lysates may run through a third protein. Binding calls can cover weak binding; strength is not graded here.

Molecular target: HIV-1 Gag (HIV-1 (strain RF))
Test: co-IP; HIVRF-infected H9 cells lysed at timepoints 0 to 48 h; Gag immunoprecipitated, SDS-PAGE, immunoblot with an antibody against nSMase2

B1: neutral sphingomyelinase 2 (nSMase2) (enzyme, UniProt Q9NY59 1-655)
chain: MVLYTTPFPNSCLSALHCVSWALIFPCYWLVDRLAASFIPTTYEKRQRADDPCCLQLLCTALFTPIYLALLVASLPFAFLGFLFWSPLQSARRPYIYSRLEDKGLAGGAALLSEWKGTGPGKSFCFATANVCLLPDSLARVNNLFNTQARAKEIGQRIRNGAARPQIKIYIDSPTNTSISAASFSSLVSPQGGDGVARAVPGSIKRTASVEYKGDGGRHPGDEAANGPASGDPVDSSSPEDACIVRIGGEEGGRPPEADDPVPGGQARNGAGGGPRGQTPNHNQQDGDSGSLGSPSASRESLVKGRAGPDTSASGEPGANSKLLYKASVVKKAAARRRRHPDEAFDHEVSAFFPANLDFLCLQEVFDKRAATKLKEQLHGYFEYILYDVGVYGCQGCCSFKCLNSGLLFASRYPIMDVAYHCYPNKCNDDALASKGALFLKVQVGSTPQDQRIVGYIACTHLHAPQEDSAIRCGQLDLLQDWLADFRKSTSSSSAANPEELVAFDVVCGDFNFDNCSSDDKLEQQHSLFTHYRDPCRLGPGEEKPWAIGTLLDTNGLYDEDVCTPDNLQKVLESEEGRREYLAFPTSKSSGQKGRKELLKGNGRRIDYMLHAEEGLCPDWKAEVEEFSFITQLSGLTDHLPVAMRLMVSSGEEEA
**Q.** For B1, which binding is on record?
**A.** The binding was “binds”.
